According to the supplement of paper PMC6078165:

Tested on: MDAMB231
Assay: relative JC-1 red fluorescence (viability) vs pre-drug, coculture with fibroblast (fraction); higher = more viable cancer cells
Description: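 JC-1 labelled TNBC cells cocultured 1:1 (1,500 cells each) with CellTrace Violet stained primary or stromal fibroblasts in 384-well plates in FluoroBrite medium, treated with one of 42 anticancer drugs at 0.1, 1, 10 or 100 uM. JC-1 red fluorescence (mitochondrial integrity in cancer cells only) was read by plate reader every 8 h for 72 h. Values are normalised to each well's pre-drug value. The stock of one drug was tenfold lower, so its dose labels may be too high.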

CC(=O)O[C@@]12CO[C@@H]1C[C@H](O)[C@@]1(C)C(=O)[C@H](O)C3=C(C)[C@@H](OC(=O)[C@H](O)[C@@H](NC(=O)OC(C)(C)C)c4ccccc4)C[C@@](O)([C@@H](OC(=O)c4ccccc4)[C@H]21)C3(C)C [Docetaxel]
relative JC-1 red fluorescence
Settings	8 h	16 h	24 h	32 h	40 h	48 h	56 h	64 h	72 h
10 µM, coculture fibroblast: C12385	0.777	0.788	0.667	0.681	0.624	0.589	0.549	0.54573	0.5249
10 µM, coculture fibroblast: H6013	0.91778	0.902	0.872	0.845	0.816	0.804	0.794	0.7841	0.7575
10 µM, coculture fibroblast: H6019	0.8	0.7702	0.694	0.669	0.6334	0.619	0.602	0.604	0.592
10 µM, coculture fibroblast: H6076	0.8717	0.79771	0.7408	0.719	0.6794	0.656	0.66	0.663	0.671
10 µM, coculture fibroblast: H6231	0.949	0.876	0.813	0.759	0.718	0.687	0.647	0.625	0.596
10 µM, coculture fibroblast: HADF	0.908	0.886	0.832	0.776	0.735	0.698	0.678	0.657	0.611
10 µM, coculture fibroblast: HCFa	0.916	0.8749	0.8199	0.7758	0.7216	0.66	0.6454	0.6191	0.5804
10 µM, coculture fibroblast: HCPF	0.9061	0.8457	0.7945	0.7723	0.7169	0.6828	0.646	0.6181	0.5981
10 µM, coculture fibroblast: HHSteC	0.9221	0.9072	0.8699	0.805	0.757	0.731	0.697	0.676	0.649
10 µM, coculture fibroblast: HMF	0.899	0.831	0.761	0.721	0.674	0.639	0.613	0.6	0.59
10 µM, coculture fibroblast: HPFa	0.9367	0.9196	0.857	0.793	0.772	0.731	0.687	0.667	0.627
10 µM, coculture fibroblast: HUF	0.8719	0.7742	0.808	0.688	0.633	0.625	0.587	0.609	0.608
10 µM, coculture fibroblast: Hs5	0.926	0.881	0.8206	0.7642	0.732	0.678	0.644	0.625	0.614
10 µM, coculture fibroblast: Hs27A	0.9148	0.8801	0.8487	0.816	0.76	0.696	0.721	0.714	0.675
10 µM, coculture fibroblast: Hs343T	0.951	0.869	0.792	0.738	0.671	0.626	0.573	0.5422	0.519
10 µM, coculture fibroblast: WS1	0.77042	0.73822	0.628	0.595	0.555	0.522	0.486	0.475	0.453
100 µM, coculture fibroblast: C12385	0.813	0.826	0.692	0.716	0.651	0.632	0.591	0.585	0.571
100 µM, coculture fibroblast: H6013	0.934	0.884	0.859	0.819	0.765	0.741	0.74	0.717	0.7
100 µM, coculture fibroblast: H6019	0.802	0.729	0.6566	0.654	0.624	0.602	0.572	0.575	0.563
100 µM, coculture fibroblast: H6076	0.95099	0.905	0.87	0.854	0.811	0.782	0.764	0.765	0.78
100 µM, coculture fibroblast: H6231	0.9615	0.905	0.816	0.763	0.7151	0.6871	0.646	0.624	0.593
100 µM, coculture fibroblast: HADF	0.9303	0.9074	0.84	0.788	0.727	0.674	0.659	0.635	0.595
100 µM, coculture fibroblast: HCFa	0.94217	0.8873	0.836	0.786	0.723	0.675	0.661	0.639	0.616
100 µM, coculture fibroblast: HCPF	0.985	0.912	0.832	0.81	0.745	0.71	0.682	0.669	0.649
100 µM, coculture fibroblast: HHSteC	0.9515	0.915	0.86	0.809	0.765	0.74	0.704	0.698	0.67
100 µM, coculture fibroblast: HMF	0.897	0.938	0.872	0.822	0.772	0.737	0.687	0.659	0.637
100 µM, coculture fibroblast: HPFa	0.9684	0.9328	0.8654	0.7953	0.775	0.732	0.68	0.66	0.627
100 µM, coculture fibroblast: HUF	0.878	0.796	0.766	0.675	0.635	0.636	0.602	0.613	0.608
100 µM, coculture fibroblast: Hs5	0.92	0.838	0.7703	0.714	0.67	0.623	0.5897	0.575	0.573
100 µM, coculture fibroblast: Hs27A	0.9259	0.9094	0.886	0.8586	0.8323	0.768	0.7946	0.7873	0.7444
100 µM, coculture fibroblast: Hs343T	0.862	0.903	0.791	0.7335	0.6633	0.605	0.5442	0.527	0.501
100 µM, coculture fibroblast: WS1	0.807	0.76	0.65	0.653	0.611	0.586	0.548	0.55	0.527

Values are relative to the signal before dosing, not to a vehicle control; the signal also falls without drug.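 Fibroblast labels name human fibroblasts: mostly primary ones from tissues such as uterus (C12385, HUF), lung (H6013), bone (Hs27A), adrenal (HADF) and skin (WS1), plus mammary HMF and breast cancer-associated Hs343T. The cancer cells are basal-like or mesenchymal-like triple-negative breast cancer lines. The paper calls a changed response a hit when it shifts by more than 3x the replicate standard deviation. The tissue of the other fibroblasts is not given here.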
